Source: PubChem BioAssay (NCATS)
The other results are listed elsewhere or left out. Further columns of the screen follow, without active or inactive calls. Most of these compounds were active or inconclusive in the main read-out, so they are no random draw. Words in brackets tell the shape of the fitted curve; partial curves, single points and poor fits give uncertain potencies.

test: qHTS Assay for Inhibitors of PDE-IV (AID 607); conditions: HEK293 ACTOne CNG channel cells, membrane potential fluorescence; measured here: parental cell counter-screen
Outline: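 Cell-based read-out of cAMP via a modified cyclic nucleotide-gated channel and membrane potential dye (535/590 nm) in HEK293 cells expressing PDE4 endogenously. Compounds tested up to 22.9 uM final; 100 uM RO 20-1724 reference.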

SMILES | AC50
CC[C@H](Cc1c(I)cc(I)c(N)c1I)C(=O)O | 6.31 µM [rising, partial curve, poor fit]
COc1ccc(Oc2ncc3nc(C)c(=O)n(Cc4cccc(OC)c4)c3n2)cc1 | 10 µM [rising, single point]
NC(=O)SCC(=O)Nc1ccc2ncccc2c1 | 2.51 µM [falling, single point]
O=C(c1csnn1)N1CCC[C@@]2(CCN(Cc3cc(C(F)(F)F)cc(C(F)(F)F)c3)C2)C1 | 0.631 µM [rising, partial curve]
COC(=O)[C@@]1(Cc2ccc(F)cc2)[C@H]2c3cc(C(=O)N(C)C)n(Cc4ccc(C)o4)c3C[C@H]2CN1C(=O)c1ccccc1 | 10 µM [rising, single point]
CCCC[C@@H]1C[C@H]1C(NC(=O)c1ccco1)c1ccc(C(=O)OC)cc1 (stereo not given in full) | 7.94 µM [rising, partial curve]
Cn1cccc1C(=O)N1CCC2(CCN(Cc3nccs3)CC2)CC1 | 3.98 µM [rising, single point]
CC[C@@H]1CN2CCc3cc(OC)c(OC)cc3[C@H]2C[C@@H]1C[C@H]1NCCc2cc(OC)c(OC)cc21 | 12.6 µM [rising, partial curve]
COc1ccccc1-c1nccc(NCc2cccc(C)c2)n1 | 6.31 µM [rising, partial curve]
CN(C)Cc1ccccc1-c1nc(NCc2cccs2)c2ccccc2n1 | 10 µM [rising, partial curve]
COc1ccc2c(c1)[C@]1(C)CCC[C@](C)(CO)[C@@H]1CC2 | 31.6 µM [rising, single point]
C[C@@H](C(=O)O)[C@@H]1C[C@@]1(C)[C@@H](NC(=O)OCc1ccccc1)c1ccccc1 | 2 µM [rising, single point]
FC(F)(F)c1ccccc1-c1ccc2ncnc(NCc3cccs3)c2c1 | 7.94 µM [rising, partial curve]
COC(=O)[C@@]1(Cc2ccc(OC)cc2)[C@H]2c3cc(C(=O)N4CCCC4)n(Cc4ccc(OC(F)(F)F)cc4)c3C[C@H]2CN1C(=O)c1ccccc1 | 2.51 µM [rising, single point]
CCCC[C@@H]1C[C@H]1C(NC(=O)c1ccco1)c1ccccc1 (stereo not given in full) | 7.94 µM [rising, partial curve]
COc1cccc(OC)c1OCCNC[C@@H]1CSc2ccccc2O1 | 12.6 µM [rising, partial curve]
CCC/C=C(\CCC)C(NC(=O)c1cccs1)c1ccc(C(=O)OC)cc1 (stereo not given) | 10 µM [rising, single point]
CN(C)Cc1ccccc1-c1nc(N(C)C)c2ccccc2n1 | 10 µM [rising, partial curve]
O=C(c1csnn1)N1CCC2(CC1)CCN(c1ccncc1)CC2 | 3.98 µM [rising, single point]
CN1[C@@H](CC(=O)c2ccccc2)CCC[C@@H]1C[C@@H](O)c1ccccc1 | 10 µM [rising, single point]

8 structures out of the list, sorted by formula weight, low to high.
SMILES | AC50
COc1ccccc1-c1nccc(NCc2cccc(C)c2)n1 | 6.31 µM [rising, partial curve]
CN1[C@@H](CC(=O)c2ccccc2)CCC[C@@H]1C[C@@H](O)c1ccccc1 | 10 µM [rising, single point]
C[C@@H](C(=O)O)[C@@H]1C[C@@]1(C)[C@@H](NC(=O)OCc1ccccc1)c1ccccc1 | 2 µM [rising, single point]
CN(C)Cc1ccccc1-c1nc(NCc2cccs2)c2ccccc2n1 | 10 µM [rising, partial curve]
FC(F)(F)c1ccccc1-c1ccc2ncnc(NCc3cccs3)c2c1 | 7.94 µM [rising, partial curve]
CCC/C=C(\CCC)C(NC(=O)c1cccs1)c1ccc(C(=O)OC)cc1 (stereo not given) | 10 µM [rising, single point]
COc1ccc(Oc2ncc3nc(C)c(=O)n(Cc4cccc(OC)c4)c3n2)cc1 | 10 µM [rising, single point]
COC(=O)[C@@]1(Cc2ccc(OC)cc2)[C@H]2c3cc(C(=O)N4CCCC4)n(Cc4ccc(OC(F)(F)F)cc4)c3C[C@H]2CN1C(=O)c1ccccc1 | 2.51 µM [rising, single point]

Remaining list, next part.

SMILES | AC50
CCCC/C=C/C(NC(=O)OCc1ccccc1Cl)c1ccccc1 (stereo not given) | 12.6 µM [rising, single point]
O=C(O)/C=C\c1ccc(Cn2ccnc2)cc1 | 7.94 µM [rising, partial curve, poor fit]
COC(=O)[C@H]1C[C@@H]1[C@H](NC(=O)c1ccccc1)c1ccccc1 | 0.631 µM [rising, single point]
CCC[C@@H]1C[C@@]1(CCC)C(NS(=O)(=O)c1cccc2cccnc12)c1ccc(Cl)cc1 (stereo not given in full) | 0.794 µM [rising, partial curve, poor fit]
CC(C)NC(=O)N1CCC2(CC1)CCN(C(=O)c1ccncc1)CC2 | 3.98 µM [rising, single point]
COc1cc2c(c(OC)c1OC)-c1ccc(OC)c(=O)cc1[C@H](NC(C)=O)CC2 | 12.6 µM [rising, single point]
COc1ccc(CNc2ncnc3ccc(-c4cccc(NS(C)(=O)=O)c4)cc23)c(OC)c1 | 10 µM [rising, partial curve]
O=C(O)COC(=O)Cc1ccccc1Nc1c(Cl)cccc1Cl | 3.98 µM [rising, partial curve, poor fit]
O=c1c(CCc2ccccc2)nc2cnc(N3CCNCC3)nc2n1C1CC1 | 15.8 µM [rising, single point]
CC(C)COC[C@H](CN(Cc1ccccc1)c1ccccc1)N1CCCC1 | 5.01 µM [rising, partial curve]
CCCC[C@H]1C[C@@H]1[C@@H]1N(C(C)=O)[C@H](c2cccc(OC)c2)CC12CC2 | 10 µM [rising, single point]
N#Cc1ccc(CN2CCC3(CC2)CCN(C(=O)c2ccco2)CC3)cc1 | 0.398 µM [rising, single point]
O[Si@](CCCN1CCCCC1)(c1ccc(F)cc1)C1CCCCC1 | 10 µM [rising, partial curve]
CCCC/C=C/C(NC(=O)c1cccs1)c1ccccc1 (stereo not given) | 10 µM [rising, single point]
C[C@@H](C(=O)NCC1CC1)[C@H]1C[C@]1(C)[C@H](NC(=O)OCc1ccccc1)c1ccccc1 | 0.398 µM [rising, single point]
CCC/C=C(\CCC)C(NS(=O)(=O)c1ccc(Cl)cc1)c1ccccc1 (stereo not given) | 2.51 µM [rising, full curve, poor fit]
COc1ccc(CNc2cc(-c3ccccc3Cl)ncn2)c(OC)c1 | 12.6 µM [rising, single point]
COc1cccc(-c2ccc3ncnc(NCc4ccccc4)c3c2)c1 | 12.6 µM [rising, single point]
COc1ccc2nc3c(c([Si](C)(C)C(C)(C)C)c2c1)Cn1c-3cccc1=O | 15.8 µM [rising, single point]
CCCCCN(CCCCC)C(=O)[C@H](CCC(=O)O)NC(=O)c1ccc(Cl)c(Cl)c1 | 10 µM [rising, single point]
